The source of these data is PMC9365671.

By UniProt entry, the sequences of proteins in these tests, tags left out.
UniProt Q12840: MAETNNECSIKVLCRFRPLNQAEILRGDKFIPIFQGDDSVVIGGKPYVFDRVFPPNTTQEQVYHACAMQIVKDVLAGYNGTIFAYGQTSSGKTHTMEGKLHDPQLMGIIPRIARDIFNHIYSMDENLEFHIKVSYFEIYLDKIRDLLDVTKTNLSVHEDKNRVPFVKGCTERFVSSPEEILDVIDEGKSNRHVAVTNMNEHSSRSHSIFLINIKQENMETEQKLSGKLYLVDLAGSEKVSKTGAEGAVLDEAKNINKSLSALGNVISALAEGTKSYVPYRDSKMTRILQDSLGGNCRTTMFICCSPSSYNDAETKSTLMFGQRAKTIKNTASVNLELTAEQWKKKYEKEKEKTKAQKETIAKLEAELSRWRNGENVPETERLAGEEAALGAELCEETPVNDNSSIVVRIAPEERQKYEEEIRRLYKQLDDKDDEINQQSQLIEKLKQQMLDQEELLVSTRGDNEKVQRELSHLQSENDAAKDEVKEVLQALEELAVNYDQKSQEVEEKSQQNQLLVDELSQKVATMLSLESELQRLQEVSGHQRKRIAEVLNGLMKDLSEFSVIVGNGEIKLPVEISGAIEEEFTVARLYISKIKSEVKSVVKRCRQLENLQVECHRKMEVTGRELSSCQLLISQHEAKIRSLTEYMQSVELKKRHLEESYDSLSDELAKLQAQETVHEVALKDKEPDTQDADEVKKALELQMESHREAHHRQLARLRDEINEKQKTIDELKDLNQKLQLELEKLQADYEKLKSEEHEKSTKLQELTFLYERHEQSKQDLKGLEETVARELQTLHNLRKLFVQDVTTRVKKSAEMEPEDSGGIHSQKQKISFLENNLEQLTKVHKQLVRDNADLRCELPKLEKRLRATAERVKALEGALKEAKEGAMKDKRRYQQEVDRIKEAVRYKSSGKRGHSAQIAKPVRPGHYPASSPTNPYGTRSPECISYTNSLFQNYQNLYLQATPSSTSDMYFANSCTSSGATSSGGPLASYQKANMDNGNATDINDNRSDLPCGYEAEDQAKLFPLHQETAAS
UniProt Q07866: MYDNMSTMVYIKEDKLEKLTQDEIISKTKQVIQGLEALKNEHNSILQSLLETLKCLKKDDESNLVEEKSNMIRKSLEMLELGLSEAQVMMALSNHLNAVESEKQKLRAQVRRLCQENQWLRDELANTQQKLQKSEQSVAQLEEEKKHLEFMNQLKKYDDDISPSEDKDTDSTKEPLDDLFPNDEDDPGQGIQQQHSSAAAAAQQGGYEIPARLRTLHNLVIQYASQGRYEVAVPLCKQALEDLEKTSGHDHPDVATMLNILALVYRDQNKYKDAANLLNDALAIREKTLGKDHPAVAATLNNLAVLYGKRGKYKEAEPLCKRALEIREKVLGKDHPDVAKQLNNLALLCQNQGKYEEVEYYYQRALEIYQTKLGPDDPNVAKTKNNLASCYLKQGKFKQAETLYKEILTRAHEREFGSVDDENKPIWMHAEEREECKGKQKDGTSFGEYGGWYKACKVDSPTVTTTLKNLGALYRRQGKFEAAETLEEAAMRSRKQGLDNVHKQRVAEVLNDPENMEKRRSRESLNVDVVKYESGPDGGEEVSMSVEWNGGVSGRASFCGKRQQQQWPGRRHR

The target in this test is full-length human KIF5A-mScarlet-StrepII (human) (UniProt Q12840). Nature of the test: SEC-MALS; KIF5-KLC1 complexes co-expressed in Sf9 and co-purified; BioSep SEC-s4000 column, GF150 buffer (25 mM HEPES-KOH, 150 mM KCl, 2 mM MgCl2); both purified. (SEC sorts molecules by how far they enter the pores of the column.)

Results are given in words; binding and its absence hold for the method and conditions named. Some results given as binding are weak or reduced against the parent protein; the word gives no strength.

As for “6xHis-FLAG-human KLC1 (co-expressed with KIF5) (from UniProt Q07866 1-573)”, the binding result is “binds”.
